From US9173402B2, “Fungicidal alkyl-substituted 2[2-chloro-4-(4-chioro-phenoxy)-phenyl]-1[1,2,4]triazol-1-yl-ethanol compounds” (BASF SE, priority 2011, dated 2015)
Some of these results come from one statement about several compounds together.

What was measured:
Format in all cases: in vivo
[1] = test system: Botrytis cinerea; assay: Preventative control of grey mold on leaves of green pepper (greenhouse); conditions: 150 ppm; green pepper sprayed one day before inoculation; assessed after 5 days; untreated plants 90% infected
[2] = test system: Septoria tritici; assay: Preventative control of leaf blotch on wheat (greenhouse, Use Example 5); conditions: 300 ppm; wheat sprayed one day before inoculation; assessed after 4 weeks; untreated plants 90% infected
[3] = test system: Phakopsora pachyrhizi; assay: Preventative control of soy bean rust on soy beans (greenhouse); conditions: 300 ppm; soy bean sprayed one day before inoculation; assessed after 14 days; untreated plants 90% infected
[4] = test system: Puccinia recondita; assay: Preventative control of brown rust on wheat (greenhouse); conditions: 300 ppm; wheat sprayed one day before inoculation; untreated plants 90% infected

Measured: infection (% diseased leaf area)

CCC(O)(Cn1cncn1)c1ccc(Oc2ccc(Cl)cc2)cc1Cl (stereo not drawn) [Compound I-1, 2-[2-chloro-4-(4-chlorophenoxy)phenyl]-1-(1,2,4-triazol-1-yl)butan-2-ol]
less than or equal to 15%: all assays above

CCCC(O)(Cn1cncn1)c1ccc(Oc2ccc(Cl)cc2)cc1Cl (stereo not drawn) [Compound I-2, 2-[2-chloro-4-(4-chloro-phenoxy)-phenyl]-1-[1,2,4]triazol-1-yl-pentan-2-ol]
less than or equal to 15%: all assays above

CC#CC(O)(Cn1cncn1)c1ccc(Oc2ccc(Cl)cc2)cc1Cl (stereo not drawn) [Compound I-8, 2-[2-chloro-4-(4-chlorophenoxy)phenyl]-1-(1,2,4-triazol-1-yl)pent-3-yn-2-ol]
less than or equal to 15%: all assays above
